{"source": "patent US20230203142A1", "about": "“TREATMENT OF METABOLIC DISORDERS THROUGH THE TARGETING OF A NOVEL CIRCULATING HORMONE COMPLEX” (The President and Fellows of Harvard College, priority 2020, published 2023)", "test_system": "non-diabetic NOD mice", "assay": "Immune phenotyping (FACS) of tissues of treated NOD mice", "format": "in vivo, mouse", "description": "To perform immune phenotyping, mice were euthanized with CO2 and cardiac perfusion performed with 40 ml of sterile PBS. Whole pancreas, pancreatic lymph nodes (PLN), inguinal lymph nodes (ILN), and spleen were harvested, diced into 1 mm pieces, placed in digestion buffer (RPMI 1640, lmg/ml Collagenase Type IV, 10 U/ml DNAsel, and 1% BSA), and incubated at 37° C. for 20 min shaking at 250 rpm. Pancreas samples were filtered through a 40 μm nylon strainer into a fresh 50 ml tube, and fresh media added up to 40 ml (RPMI 1640, 1% FBS, 1% Sodium Pyruvate, 1.56 ul β-mercaptoethanol). Tubes were then centrifuged at 1500 rpm for 10 min, supernatant removed, and cells resuspended in 2 ml fresh media. Resuspended cells were passed through a 40 μm nylon filter into a 15 ml round-bottomed polystyrene tube. For PLN, ILN, and spleen, digestion samples were filtered through a 40 μm nylon strainer into a 15 ml round bottom polystyrene tube, and lml of media was added. Spleen samples had supernatant removed, and lml ACK lysis buffer (Thermo Scientific A1049201) added for 2 min at room temperature. Samples were then centrifuged at 1500 rpm for 5 min, and resuspended in 1 ml media. All samples were centrifuged at 1500 rpm for 5 min, supernatant removed, and cells resuspended in FACS buffer (5% BSA in cold PBS; 0.5 ml for PLN and ILN, lml for pancreas and spleen). Staining and FACS analysis were performed as previously described (Engin et al., 2013).", "key": {"[1]": {"conditions": "inguinal lymph nodes, non-diabetic NOD mice, mean"}, "[2]": {"conditions": "pancreatic lymph nodes, non-diabetic NOD mice, mean"}}, "data": [{"molecule": "a-Ab: monoclonal antibody previously reported as CA33; heavy chain SEQ ID NO 446, light chain SEQ ID NO 447; binds FABP4 and NDPK (antibody, listed as Homo sapiens) heavy: QSVEESGGRLVTPGTPLTLTCTVSGFSLSTYYMSWVRQAPGKGLEWIGIIYPSGSTYCASWAKGRFTISKASTTVDLKITSPTTEDTATYFCARPDNDGTSGYLSGFGLWGQGLVTVSSAKTTPPSVYPLAPGSAAQTNSMVTLGCLVKGYFPEPVTVTWNSGSLSSGVHTFPAVLQSDLYTLSSSVTVPSSTWPSETVTCNVAHPASSTKVDKKIVPRDC light: DVVMTQTPASVSEPVGGTVTIKCGASEDISRYLVWYQQKPGQPPKRLIYKASTLASGVPSRFKGSGSGTDFTLTISDLECDDAATYYCQCTYGTYAGSFFYSFGGGTEVVVERTDAAPTVSIFPPSSEQLTSGGASVVCFLNNFYPKDINVKWKIDGSERQNGVLNSWTDQDSKDCTYSMSSTLTLTKDEYERHNSYTCEATHKTSTSPIVKSFNRNEC", "values": [{"measurement": "ILN B Cells", "setting": "[1]", "result": 19.0, "unit": "%"}, {"measurement": "ILN CD45+", "setting": "[1]", "result": 98.8, "unit": "%"}, {"measurement": "ILN Dendritic Cells", "setting": "[1]", "result": 4.8, "unit": "%"}, {"measurement": "ILN Granulocytes", "setting": "[1]", "result": 2.3, "unit": "%"}, {"measurement": "ILN Regulatory T-Cells", "setting": "[1]", "result": 3.9, "unit": "%"}, {"measurement": "ILN T-Helper Cells", "setting": "[1]", "result": 56.6, "unit": "%"}, {"measurement": "Spleen B Cells", "setting": "non-diabetic NOD mice, mean", "result": 51.3, "unit": "%"}, {"measurement": "Spleen CD45+", "setting": "non-diabetic NOD mice, mean", "result": 96.2, "unit": "%"}, {"measurement": "Spleen Dendritic Cells", "setting": "non-diabetic NOD mice, mean", "result": 0.98, "unit": "%"}, {"measurement": "Spleen Granulocytes", "setting": "non-diabetic NOD mice, mean", "result": 2.0, "unit": "%"}, {"measurement": "Spleen Regulatory T-Cells", "setting": "non-diabetic NOD mice, mean", "result": 3.1, "unit": "%"}, {"measurement": "Spleen T-Helper Cells", "setting": "non-diabetic NOD mice, mean", "result": 30.4, "unit": "%"}, {"measurement": "PLN B Cells", "setting": "[2]", "result": 38.1, "unit": "%"}, {"measurement": "PLN CD45+", "setting": "[2]", "result": 97.4, "unit": "%"}, {"measurement": "PLN Dendritic Cells", "setting": "[2]", "result": 12.9, "unit": "%"}, {"measurement": "PLN Granulocytes", "setting": "[2]", "result": 5.0, "unit": "%"}, {"measurement": "PLN Regulatory T-Cells", "setting": "[2]", "result": 3.3, "unit": "%"}, {"measurement": "PLN T-Helper Cells", "setting": "[2]", "result": 41.3, "unit": "%"}, {"measurement": "percentage of total immune cell numbers", "setting": "whole pancreas, non-diabetic mice, 12 wks", "result": "significantly reduced"}]}]}
